Data from PMC6679547.
No constants are given. Whether binding was seen depends on the method and setting. Binding seen in cells or lysates may run through a third protein. For some assays here: Binding calls can cover weak binding; strength is not graded here.

The chains behind the UniProt entries cited, without tags or fusion partners. Where a name states a change or a piece, a line headed by the entry shows the natural chain unless it says otherwise.
UniProt Q9BVL2: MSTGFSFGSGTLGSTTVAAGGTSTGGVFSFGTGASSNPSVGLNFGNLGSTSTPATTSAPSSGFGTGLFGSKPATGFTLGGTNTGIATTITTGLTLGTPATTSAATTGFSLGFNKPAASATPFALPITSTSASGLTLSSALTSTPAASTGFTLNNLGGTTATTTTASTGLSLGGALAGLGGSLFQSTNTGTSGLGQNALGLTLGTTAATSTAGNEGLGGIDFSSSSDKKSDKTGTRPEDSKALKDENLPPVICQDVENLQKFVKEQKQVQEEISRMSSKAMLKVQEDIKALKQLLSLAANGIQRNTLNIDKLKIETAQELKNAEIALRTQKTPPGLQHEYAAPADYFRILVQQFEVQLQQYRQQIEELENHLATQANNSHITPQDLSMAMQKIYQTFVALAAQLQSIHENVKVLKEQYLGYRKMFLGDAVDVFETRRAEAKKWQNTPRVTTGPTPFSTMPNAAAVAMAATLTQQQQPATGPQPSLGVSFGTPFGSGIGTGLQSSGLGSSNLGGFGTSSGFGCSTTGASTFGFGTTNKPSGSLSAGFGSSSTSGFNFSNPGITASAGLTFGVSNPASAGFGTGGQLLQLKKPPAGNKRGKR
UniProt P23258: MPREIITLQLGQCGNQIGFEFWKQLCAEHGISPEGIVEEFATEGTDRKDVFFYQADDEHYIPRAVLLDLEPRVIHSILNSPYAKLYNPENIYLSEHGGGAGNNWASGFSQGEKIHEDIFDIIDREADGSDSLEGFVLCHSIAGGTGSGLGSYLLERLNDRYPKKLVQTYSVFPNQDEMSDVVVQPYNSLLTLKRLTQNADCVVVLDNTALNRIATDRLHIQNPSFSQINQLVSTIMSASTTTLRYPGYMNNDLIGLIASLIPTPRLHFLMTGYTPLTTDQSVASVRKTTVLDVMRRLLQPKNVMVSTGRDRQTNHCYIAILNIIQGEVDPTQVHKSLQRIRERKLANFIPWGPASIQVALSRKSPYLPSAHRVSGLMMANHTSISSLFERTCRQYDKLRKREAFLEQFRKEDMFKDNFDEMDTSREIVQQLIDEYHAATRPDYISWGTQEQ

What was measured:
[1] = target: Nucleoporin Nup58 (human (endogenous in HeLa)) (UniProt Q9BVL2); assay: co-IP; interphase HeLa cell extracts precipitated with anti-Nup58 (control: nonspecific rabbit IgG); SDS-PAGE and immunoblotting
[2] = target: Nucleoporin Nup58 (human (endogenous in HeLa)) (UniProt Q9BVL2); assay: co-IP; mitotic HeLa cell extracts precipitated with anti-Nup58 (control: nonspecific rabbit IgG), protein A/G beads, 1 h at 4 °C; lysis and wash buffer 50 mM Tris-HCl pH 7.2, 250 mM NaCl, 0.1% Nonidet P-40, 2 mM EDTA, 10% glycerol; immunoblotting

γ-tubulin (from UniProt P23258)
binding [1]: no binding (only interphase HeLa cell extracts) | binding [2]: binds
